Reference: PMC11423144
Results are given in words; binding and its absence hold for the method and conditions named. Binding seen in cells or lysates may run through a third protein. Some results given as binding are weak or reduced against the parent protein; the word gives no strength. Where a sequence is shown, tags or fusion partners need not be part of it.

By UniProt entry, the sequences of proteins in these tests, tags left out.
UniProt P11142: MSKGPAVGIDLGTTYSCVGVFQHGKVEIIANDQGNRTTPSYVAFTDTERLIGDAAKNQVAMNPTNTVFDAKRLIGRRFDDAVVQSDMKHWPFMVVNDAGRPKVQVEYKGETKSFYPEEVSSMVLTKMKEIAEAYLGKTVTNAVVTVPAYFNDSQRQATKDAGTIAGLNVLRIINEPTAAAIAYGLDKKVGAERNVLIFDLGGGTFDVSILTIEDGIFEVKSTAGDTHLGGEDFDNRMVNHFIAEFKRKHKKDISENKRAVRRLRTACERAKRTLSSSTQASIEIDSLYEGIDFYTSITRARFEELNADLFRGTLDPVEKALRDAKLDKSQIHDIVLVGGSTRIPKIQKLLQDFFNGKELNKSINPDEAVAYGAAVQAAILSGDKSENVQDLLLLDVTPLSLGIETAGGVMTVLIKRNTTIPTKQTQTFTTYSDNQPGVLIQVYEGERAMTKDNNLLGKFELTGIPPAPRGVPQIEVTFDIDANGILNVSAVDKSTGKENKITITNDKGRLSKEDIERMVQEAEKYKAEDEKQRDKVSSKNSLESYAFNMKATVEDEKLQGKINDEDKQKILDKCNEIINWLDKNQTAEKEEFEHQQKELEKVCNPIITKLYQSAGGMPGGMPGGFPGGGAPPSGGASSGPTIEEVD

Molecular target: T1, human SHISA3 (human) (UniProt A0PJX4)
T1 sequence: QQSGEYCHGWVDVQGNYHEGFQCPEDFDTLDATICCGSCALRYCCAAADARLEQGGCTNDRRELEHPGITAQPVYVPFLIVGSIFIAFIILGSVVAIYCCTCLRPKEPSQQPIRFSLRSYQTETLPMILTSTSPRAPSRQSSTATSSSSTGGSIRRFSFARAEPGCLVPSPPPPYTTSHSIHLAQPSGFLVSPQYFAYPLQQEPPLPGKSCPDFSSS
Test: co-IP; human SHISA3 and candidate interacting proteins in HEK-293T cells; immunoprecipitation from lysate, immunoblot

Hspa8 (HEK-293T experiment) (from UniProt P11142 1-646)
binding: binds
